PMC5671937
These are yes or no findings as the source states them, for the method shown. In cells and extracts the contact can be indirect. Some results given as binding are weak or reduced against the parent protein; the word gives no strength. For part of these data: Tags and fused reporters may be left off the sequences shown.

Chains of the proteins cited; added tags and fusions are not shown.
UniProt P06493: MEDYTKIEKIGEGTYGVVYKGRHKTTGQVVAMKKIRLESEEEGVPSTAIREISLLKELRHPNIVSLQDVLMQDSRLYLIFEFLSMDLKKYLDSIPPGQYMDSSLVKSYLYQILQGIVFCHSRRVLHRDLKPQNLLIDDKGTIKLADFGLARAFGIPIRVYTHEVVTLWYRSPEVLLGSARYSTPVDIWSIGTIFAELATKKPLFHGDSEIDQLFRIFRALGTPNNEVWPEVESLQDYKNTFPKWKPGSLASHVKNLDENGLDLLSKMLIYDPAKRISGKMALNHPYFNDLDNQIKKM

T1: cell division cycle 25B (CDC25B) (human (endogenous in HeLa)) (UniProt P30305)
T1 sequence: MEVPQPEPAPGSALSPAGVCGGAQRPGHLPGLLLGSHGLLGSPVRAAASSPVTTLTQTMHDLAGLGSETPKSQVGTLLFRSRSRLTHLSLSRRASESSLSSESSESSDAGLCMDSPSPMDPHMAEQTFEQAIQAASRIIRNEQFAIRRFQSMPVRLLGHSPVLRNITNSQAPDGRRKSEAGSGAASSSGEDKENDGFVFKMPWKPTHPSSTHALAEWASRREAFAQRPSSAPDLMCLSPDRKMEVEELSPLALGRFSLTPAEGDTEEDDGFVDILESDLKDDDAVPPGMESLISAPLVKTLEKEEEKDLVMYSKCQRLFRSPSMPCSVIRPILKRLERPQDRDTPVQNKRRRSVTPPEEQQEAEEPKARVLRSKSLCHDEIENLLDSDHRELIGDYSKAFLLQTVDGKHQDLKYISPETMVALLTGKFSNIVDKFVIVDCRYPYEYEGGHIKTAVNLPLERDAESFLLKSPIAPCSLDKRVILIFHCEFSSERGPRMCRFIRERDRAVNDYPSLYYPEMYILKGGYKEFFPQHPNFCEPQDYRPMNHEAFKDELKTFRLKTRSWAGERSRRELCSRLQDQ

B1: Flag-KCTD12 S243A mutant (protein, UniProt Q96CX2 1-325)
chain: MALADSTRGLPNGGGGGGGSGSSSSSAEPPLFPDIVELNVGGQVYVTRRCTVVSVPDSLLWRMFTQQQPQELARDSKGRFFLDRDGFLFRYILDYLRDLQLVLPDYFPERSRLQREAEYFELPELVRRLGAPQQPGPGPPPSRRGVHKEGSLGDELLPLGYSEPEQQEGASAGAPSPTLELASRSPSGGAAGPLLTPSQSLDGSRRSGYITIGYRGSYTIGRDAQADAKFRRVARITVCGKTALAKEVFGDTLNESRDPDRPPERYTSRYYLKFNFLEQAFDKLSESGFHMVACSSTGTCAFASSTDQSEDKIWTSYTEYVFCRE
B2: cell division cycle 25B (CDC25B) (enzyme, UniProt P30305 1-580)
chain: T1 sequence

Legend:
[1] = target: cyclin-dependent kinase 1 (CDK1) (human (endogenous in HeLa)) (UniProt P06493); experiment: co-IP; HeLa cells transfected with KCTD12 wild-type or S243A mutant plasmid (1 μg, 24 h); lysate immunoprecipitated, immunoblot
[2] = target: T1, cell division cycle 25B (CDC25B) (human (endogenous in HeLa)); experiment: as above
[3] = target: cyclin-dependent kinase 1 (CDK1) (human (endogenous in HeLa)) (UniProt P06493); experiment: co-IP; HeLa cells synchronized to M phase, whole-cell lysate, primary antibody overnight at 4 °C, protein A/G Sepharose beads, immunoblot; in some panels cells transfected with wild-type or S243A KCTD12 plasmid (Figure 7c) or treated with DMSO or VX-680 0.5 μM, 24 h (Figure 7b, d)

Binder	binding [1]	binding [2]	binding [3]
B1	no binding	binds	–
B2	–	–	binds
